Drawing on ChEMBL document CHEMBL1649459, “Analysis of cell membrane characteristics of in vitro-selected daptomycin-resistant strains of methicillin-resistant Staphylococcus aureus” (2009), this text covers MIC for one compound.

≈ marks a conversion by molar mass, not a printed value.

The subject of assay [1] is Staphylococcus aureus. The assay can be described thus: microbe, parasite or virus in culture. Conditions: MW2 CB2202, 120 h.
Assay [2] has as its system Staphylococcus aureus. Briefly: microbe, parasite or virus in culture. Conditions: MW2 CB2201, 24 h.

As to `CN[C@H](CC(C)C)C(=O)N[C@H]1C(=O)N[C@@H](CC(N)=O)C(=O)N[C@H]2C(=O)N[C@H]3C(=O)N[C@H](C(=O)N[C@H](C(=O)O)c4cc(O)cc(O)c4-c4cc3ccc4O)[C@H](O)c3ccc(c(Cl)c3)Oc3cc2cc(c3O[C@@H]2O[C@H](CO)[C@@H](O)[C@H](O)[C@H]2O[C@H]2C[C@](C)(N)[C@H](O)[C@H](C)O2)Oc2ccc(cc2Cl)[C@H]1O` [VANCOMYCIN], the MIC against Staphylococcus aureus [1] and in the assay on Staphylococcus aureus [2] was 3 µg/mL (≈ 2.07 µM) throughout.
